Sequences of proteins named here, by UniProt entry; tags and fusion partners are left off. Residues count along the entry.
UniProt P95232, 1-322: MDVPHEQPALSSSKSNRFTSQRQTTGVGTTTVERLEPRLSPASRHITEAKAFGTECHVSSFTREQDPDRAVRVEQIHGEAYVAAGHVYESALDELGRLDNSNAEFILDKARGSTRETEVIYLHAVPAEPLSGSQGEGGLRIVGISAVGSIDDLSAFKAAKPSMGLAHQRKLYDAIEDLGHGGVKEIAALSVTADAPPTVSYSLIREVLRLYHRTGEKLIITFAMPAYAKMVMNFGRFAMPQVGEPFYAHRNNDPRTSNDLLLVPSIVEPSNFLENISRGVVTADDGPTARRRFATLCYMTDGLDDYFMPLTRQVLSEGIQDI

According to PMC12856293 (The Journal of Biological Chemistry, 2025):

Molecular target: T1, TyzAMtb (Mycobacterium tuberculosis, UniProt P95232)
T1 construct: gene Rv2336

In the case of `N[C@@H](Cc1ccc(O)cc1)C(=O)O` [L-Tyr], the “LC-QTOF endpoint product detection” value is reported as “we detected substantial amounts of C12:0-Tyr, C12:0-tyrazolone”.
